Experimental data: the supplement of paper PMC10849652
The list shows a part of the results.

By UniProt entry, the sequences of proteins in these tests, tags left out. Where a name states a change or a piece, a line headed by the entry shows the natural chain unless it says otherwise.
UniProt Q14966: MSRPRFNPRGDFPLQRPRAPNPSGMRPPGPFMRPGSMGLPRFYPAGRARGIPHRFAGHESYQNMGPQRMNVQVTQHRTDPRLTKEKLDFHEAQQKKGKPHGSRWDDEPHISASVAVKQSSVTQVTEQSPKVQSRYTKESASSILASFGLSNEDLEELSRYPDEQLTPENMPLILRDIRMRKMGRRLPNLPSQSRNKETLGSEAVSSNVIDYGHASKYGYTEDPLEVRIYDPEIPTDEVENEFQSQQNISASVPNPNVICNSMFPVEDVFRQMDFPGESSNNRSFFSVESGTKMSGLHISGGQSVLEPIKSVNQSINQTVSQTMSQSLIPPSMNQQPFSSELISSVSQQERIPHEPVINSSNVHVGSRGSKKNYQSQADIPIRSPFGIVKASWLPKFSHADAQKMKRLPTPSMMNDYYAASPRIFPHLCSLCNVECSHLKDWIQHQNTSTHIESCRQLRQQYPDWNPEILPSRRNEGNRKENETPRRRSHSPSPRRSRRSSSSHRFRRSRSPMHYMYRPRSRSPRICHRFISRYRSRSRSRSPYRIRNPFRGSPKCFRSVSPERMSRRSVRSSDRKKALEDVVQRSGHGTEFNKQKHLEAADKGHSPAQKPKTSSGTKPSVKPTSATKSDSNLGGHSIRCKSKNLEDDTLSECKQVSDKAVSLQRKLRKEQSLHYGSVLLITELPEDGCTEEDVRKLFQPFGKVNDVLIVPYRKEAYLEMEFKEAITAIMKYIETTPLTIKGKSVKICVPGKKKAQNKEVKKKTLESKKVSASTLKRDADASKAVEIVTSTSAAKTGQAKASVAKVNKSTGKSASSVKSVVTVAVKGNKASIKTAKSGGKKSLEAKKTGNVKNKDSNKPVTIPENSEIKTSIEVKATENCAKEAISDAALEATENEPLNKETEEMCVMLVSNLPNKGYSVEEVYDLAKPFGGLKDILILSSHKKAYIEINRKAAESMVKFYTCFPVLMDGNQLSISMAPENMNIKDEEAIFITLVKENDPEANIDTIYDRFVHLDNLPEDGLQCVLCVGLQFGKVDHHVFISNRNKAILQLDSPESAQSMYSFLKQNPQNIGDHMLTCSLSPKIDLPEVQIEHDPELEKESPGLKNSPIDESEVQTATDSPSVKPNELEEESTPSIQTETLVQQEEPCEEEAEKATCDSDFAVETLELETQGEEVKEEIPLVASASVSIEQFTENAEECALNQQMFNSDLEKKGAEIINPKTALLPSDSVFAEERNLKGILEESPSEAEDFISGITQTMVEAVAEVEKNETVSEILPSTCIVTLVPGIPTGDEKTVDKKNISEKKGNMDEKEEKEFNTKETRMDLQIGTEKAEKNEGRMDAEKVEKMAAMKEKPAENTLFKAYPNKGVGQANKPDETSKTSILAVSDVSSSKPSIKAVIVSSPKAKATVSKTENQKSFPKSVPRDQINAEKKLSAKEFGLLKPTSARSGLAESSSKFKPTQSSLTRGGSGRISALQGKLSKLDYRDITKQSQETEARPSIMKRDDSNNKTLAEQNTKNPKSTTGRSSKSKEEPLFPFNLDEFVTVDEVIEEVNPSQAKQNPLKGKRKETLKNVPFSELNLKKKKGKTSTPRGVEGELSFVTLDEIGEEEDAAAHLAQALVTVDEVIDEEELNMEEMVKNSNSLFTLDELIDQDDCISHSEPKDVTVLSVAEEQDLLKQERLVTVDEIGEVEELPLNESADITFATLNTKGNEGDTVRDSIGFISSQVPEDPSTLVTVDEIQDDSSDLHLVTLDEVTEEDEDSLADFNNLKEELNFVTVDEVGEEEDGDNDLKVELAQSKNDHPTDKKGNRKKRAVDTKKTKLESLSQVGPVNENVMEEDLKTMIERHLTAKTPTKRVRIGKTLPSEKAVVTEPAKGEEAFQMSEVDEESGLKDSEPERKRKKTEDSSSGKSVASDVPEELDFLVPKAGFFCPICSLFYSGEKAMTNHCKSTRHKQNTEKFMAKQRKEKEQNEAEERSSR
UniProt Q9Y5V0: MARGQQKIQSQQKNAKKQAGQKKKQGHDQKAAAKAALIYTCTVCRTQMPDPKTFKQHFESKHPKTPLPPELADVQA
UniProt Q5VZL5: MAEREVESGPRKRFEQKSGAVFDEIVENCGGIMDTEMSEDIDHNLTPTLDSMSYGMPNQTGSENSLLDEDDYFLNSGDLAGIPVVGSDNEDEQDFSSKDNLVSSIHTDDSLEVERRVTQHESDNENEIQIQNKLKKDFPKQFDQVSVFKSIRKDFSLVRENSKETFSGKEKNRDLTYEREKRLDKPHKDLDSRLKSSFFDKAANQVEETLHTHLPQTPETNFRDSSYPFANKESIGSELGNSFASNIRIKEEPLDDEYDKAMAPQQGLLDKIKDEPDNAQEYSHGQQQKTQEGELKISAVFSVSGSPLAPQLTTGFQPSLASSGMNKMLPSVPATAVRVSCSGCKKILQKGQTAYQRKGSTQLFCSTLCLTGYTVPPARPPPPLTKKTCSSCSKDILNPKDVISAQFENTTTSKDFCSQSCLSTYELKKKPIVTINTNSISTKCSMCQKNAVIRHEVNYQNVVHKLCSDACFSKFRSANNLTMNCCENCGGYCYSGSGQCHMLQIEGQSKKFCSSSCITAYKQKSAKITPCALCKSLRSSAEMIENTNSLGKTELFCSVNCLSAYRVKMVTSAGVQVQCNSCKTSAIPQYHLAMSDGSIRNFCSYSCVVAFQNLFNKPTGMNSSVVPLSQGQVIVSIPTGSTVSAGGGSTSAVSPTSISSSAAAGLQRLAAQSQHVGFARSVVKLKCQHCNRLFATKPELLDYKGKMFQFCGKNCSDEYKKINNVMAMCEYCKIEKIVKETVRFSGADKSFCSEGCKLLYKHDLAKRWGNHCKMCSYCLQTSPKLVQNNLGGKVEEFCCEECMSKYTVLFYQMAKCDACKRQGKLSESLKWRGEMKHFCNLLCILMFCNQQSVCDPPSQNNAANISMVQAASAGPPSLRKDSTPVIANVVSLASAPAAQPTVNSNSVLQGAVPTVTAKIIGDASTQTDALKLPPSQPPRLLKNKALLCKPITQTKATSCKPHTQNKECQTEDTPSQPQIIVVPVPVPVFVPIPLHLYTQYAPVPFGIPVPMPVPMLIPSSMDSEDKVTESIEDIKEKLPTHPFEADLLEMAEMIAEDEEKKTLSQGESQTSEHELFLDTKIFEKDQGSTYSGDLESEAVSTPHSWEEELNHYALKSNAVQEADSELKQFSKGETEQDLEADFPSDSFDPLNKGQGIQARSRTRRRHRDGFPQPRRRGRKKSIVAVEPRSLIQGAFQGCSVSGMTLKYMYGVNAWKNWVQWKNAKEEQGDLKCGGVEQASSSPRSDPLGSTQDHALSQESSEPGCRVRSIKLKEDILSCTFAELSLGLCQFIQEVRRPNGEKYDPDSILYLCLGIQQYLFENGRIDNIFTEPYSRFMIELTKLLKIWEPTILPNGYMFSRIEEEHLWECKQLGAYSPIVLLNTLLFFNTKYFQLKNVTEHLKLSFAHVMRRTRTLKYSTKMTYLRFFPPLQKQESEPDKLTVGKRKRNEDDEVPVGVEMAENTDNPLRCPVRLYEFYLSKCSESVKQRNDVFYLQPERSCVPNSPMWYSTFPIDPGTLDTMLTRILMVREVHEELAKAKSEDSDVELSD
UniProt P52747: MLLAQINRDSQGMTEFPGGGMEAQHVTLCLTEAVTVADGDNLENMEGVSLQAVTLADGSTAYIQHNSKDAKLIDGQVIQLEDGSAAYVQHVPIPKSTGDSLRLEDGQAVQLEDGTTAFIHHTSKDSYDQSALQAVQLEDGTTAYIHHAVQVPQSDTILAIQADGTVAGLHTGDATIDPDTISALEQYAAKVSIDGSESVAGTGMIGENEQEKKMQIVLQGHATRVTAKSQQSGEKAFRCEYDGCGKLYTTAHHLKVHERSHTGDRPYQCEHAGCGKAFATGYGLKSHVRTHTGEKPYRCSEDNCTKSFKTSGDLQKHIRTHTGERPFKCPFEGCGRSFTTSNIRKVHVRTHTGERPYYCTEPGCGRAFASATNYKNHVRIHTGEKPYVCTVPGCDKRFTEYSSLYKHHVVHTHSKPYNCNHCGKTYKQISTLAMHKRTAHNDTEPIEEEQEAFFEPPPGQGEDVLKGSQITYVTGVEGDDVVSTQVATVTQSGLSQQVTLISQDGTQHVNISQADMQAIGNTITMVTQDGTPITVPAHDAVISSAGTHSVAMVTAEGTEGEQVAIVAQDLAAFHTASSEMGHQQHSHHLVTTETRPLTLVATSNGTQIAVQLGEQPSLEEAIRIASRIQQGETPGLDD
UniProt Q14592: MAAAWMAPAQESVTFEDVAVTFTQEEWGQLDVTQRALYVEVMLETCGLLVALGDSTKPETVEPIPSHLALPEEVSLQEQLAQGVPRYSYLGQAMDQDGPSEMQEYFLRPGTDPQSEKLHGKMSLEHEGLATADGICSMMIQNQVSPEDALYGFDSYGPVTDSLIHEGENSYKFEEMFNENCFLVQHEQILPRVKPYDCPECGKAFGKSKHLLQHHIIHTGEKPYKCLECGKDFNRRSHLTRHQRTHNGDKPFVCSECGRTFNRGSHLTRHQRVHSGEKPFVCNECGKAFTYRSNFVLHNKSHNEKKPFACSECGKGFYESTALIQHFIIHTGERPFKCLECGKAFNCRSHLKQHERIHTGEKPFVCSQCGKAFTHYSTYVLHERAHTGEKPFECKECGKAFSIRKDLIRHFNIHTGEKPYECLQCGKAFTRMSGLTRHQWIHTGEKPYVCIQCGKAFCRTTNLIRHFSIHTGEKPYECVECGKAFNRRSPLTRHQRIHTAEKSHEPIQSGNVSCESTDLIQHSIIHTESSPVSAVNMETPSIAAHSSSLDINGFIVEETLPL
UniProt Q5T7W0: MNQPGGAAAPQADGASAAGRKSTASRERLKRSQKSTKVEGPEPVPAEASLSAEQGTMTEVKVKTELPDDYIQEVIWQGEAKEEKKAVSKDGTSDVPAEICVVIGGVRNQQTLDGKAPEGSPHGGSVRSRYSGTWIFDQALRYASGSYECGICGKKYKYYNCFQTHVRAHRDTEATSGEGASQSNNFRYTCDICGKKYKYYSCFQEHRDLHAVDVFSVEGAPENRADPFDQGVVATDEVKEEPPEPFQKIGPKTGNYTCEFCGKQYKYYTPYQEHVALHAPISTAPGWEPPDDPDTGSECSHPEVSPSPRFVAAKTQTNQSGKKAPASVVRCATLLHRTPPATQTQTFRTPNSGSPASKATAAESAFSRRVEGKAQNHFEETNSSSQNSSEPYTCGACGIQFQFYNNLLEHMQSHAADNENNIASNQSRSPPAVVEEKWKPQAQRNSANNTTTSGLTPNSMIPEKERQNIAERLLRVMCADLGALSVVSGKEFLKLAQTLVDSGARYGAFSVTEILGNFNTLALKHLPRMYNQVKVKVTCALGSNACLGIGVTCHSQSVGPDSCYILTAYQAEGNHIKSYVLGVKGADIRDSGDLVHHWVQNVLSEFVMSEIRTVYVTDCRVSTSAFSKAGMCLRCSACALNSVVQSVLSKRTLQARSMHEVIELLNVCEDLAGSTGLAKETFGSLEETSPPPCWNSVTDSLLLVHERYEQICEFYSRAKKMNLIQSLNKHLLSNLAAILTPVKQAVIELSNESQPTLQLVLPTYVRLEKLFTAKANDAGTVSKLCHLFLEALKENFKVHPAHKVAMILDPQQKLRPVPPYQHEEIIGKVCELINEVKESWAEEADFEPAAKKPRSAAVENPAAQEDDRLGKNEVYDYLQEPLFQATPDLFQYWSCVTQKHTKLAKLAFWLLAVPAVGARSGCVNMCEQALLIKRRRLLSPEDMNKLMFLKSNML
UniProt O95229: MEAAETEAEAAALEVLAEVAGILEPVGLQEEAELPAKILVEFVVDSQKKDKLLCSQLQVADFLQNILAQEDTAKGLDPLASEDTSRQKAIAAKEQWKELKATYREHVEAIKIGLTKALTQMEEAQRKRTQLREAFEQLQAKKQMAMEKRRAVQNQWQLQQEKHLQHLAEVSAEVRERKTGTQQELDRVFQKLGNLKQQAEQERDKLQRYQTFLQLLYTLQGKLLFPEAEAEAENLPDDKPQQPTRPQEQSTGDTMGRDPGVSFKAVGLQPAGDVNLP
UniProt O75844: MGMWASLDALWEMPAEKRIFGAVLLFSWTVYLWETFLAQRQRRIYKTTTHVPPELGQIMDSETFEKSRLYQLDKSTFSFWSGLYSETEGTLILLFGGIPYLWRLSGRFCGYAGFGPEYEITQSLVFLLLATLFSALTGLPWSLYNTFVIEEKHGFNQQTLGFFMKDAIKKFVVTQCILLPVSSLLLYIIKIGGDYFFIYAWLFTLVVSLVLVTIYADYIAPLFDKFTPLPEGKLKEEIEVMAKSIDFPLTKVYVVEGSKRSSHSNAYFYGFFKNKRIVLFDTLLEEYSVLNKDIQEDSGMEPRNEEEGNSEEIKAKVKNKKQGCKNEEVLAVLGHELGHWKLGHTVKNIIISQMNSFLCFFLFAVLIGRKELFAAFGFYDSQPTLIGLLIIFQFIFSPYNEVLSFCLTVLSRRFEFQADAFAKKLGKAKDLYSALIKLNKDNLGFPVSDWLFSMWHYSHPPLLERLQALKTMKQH

Tests used:
Assay in all cases: log2 fold change, soluble protein after heating vs DMSO (PISA); higher = thermal stabilisation; K562 lysate, 10 uM; active = over 0.2 and 3.5 SD of the protein, either way, in both replicates (recomputed)
[1] = compound: C=CC(=O)N1CCC[C@@H](n2nc(-c3ccc(Oc4ccccc4)cc3)c3c(N)ncnc32)C1 [ibrutinib]
Procedure, shortened: (§1)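 Log-two fold change in thermal stability relative to solvent controls is reported from duplicates. For each sample, crude K562 extract from dounce-homogenised pellets in PBS pH 7.4 with 1 mM MgCl2, at 1 mg/mL protein, was treated with 10 μM compound for 30 min. Aliquots heated for 3 min across 48°C-58°C were pooled, brought to 0.5% NP-40 at 4°C and cleared at 21,000xg for 90 min. The supernatant was quantified by TMTpro 16plex LC-MS/MS with channel sums equalised.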

[2] = compound: CC(=O)c1cnc2ccc(-c3cc(Cl)c(O)c(Cl)c3)nc2c1N[C@H]1CC[C@H](CN(C)C)CC1
Procedure, shortened: as §1

[3] = compound: CC(C)(C)Cn1c(N)nc2ccc(-c3[nH]c(C(C)(C)C)nc3-c3ccc(F)cc3)nc21 [ralimetinib]
Procedure, shortened: as §1

[4] = compound: CC(C)(O)CC(=O)NCCn1ccc2ncnc(Nc3ccc(Oc4cccc(C(F)(F)F)c4)c(Cl)c3)c21
Procedure, shortened: as §1

[5] = compound: CC(C)C1=C2N=C(C=C(N2N=C1)NCC3=CC=CC=C3)NCCCCCCN
Procedure, shortened: as §1

[6] = compound: CC1=C(C(CC(=O)N1)C2=CC=C(C=C2)C(F)(F)F)C(=O)NC3=C(C=C4C(=C3)C=NN4)F
Procedure, shortened: as §1

[7] = compound: CC1=C(C2=C(C=C1)C(=O)C3=CC=CC=C3N2CCCN)C
Procedure, shortened: as §1

[8] = compound: CC1=C(C=C(C=C1)NC(=O)C2=CC(=CC=C2)C(C)(C)C#N)NC3=CC4=C(C=C3)N=CN(C4=O)C
Procedure, shortened: as §1

[9] = compound: CC1=C(C=C(C=C1)NC(=O)C2=CC(=CC=C2)N(C)C)NC(=O)C3=CC=C(C=C3)O
Procedure, shortened: as §1

[10] = compound: CC1=CC=C(C=C1)SC2=C3C=C(SC3=CN=C2)C(=O)N
Procedure, shortened: as §1

Measured: log2 fold change

ZNF638 (UniProt Q14966)
inactive: [1] 0.019 | [2] 0.015 | [3] 0.027 | [4] 0.018 | [5] 0.079 | [6] 0.023 | [7] -0.023 | [8] -0.036 | [9] 0.017 | [10] 0.006

ZNF706 (UniProt Q9Y5V0)
inactive: [1] 0.102 | [2] -0.002 | [3] 0.032 | [4] -0.065 | [5] 0.01 | [6] 0.015 | [7] -0.051 | [8] 0.03 | [9] -0.038 | [10] -0.022

ZNF316 (UniProt A6NFI3)
inactive: [1] -0.028 | [2] -0.023 | [3] 0.064 | [4] 0.078 | [5] 0.037 | [6] 0.057 | [7] -0.165 | [8] 0.035 | [9] -0.044 | [10] 0.058

ZNF207 isoform 2 (UniProt O43670)
inactive: [1] 0.042 | [2] -0.03 | [3] 0.016 | [4] -0.165 | [5] -0.017 | [6] -0.025 | [7] -0.016 | [8] 0.067 | [9] -0.006 | [10] -0.048

ZZEF1 (UniProt O43149)
inactive: [1] 0.018 | [2] -0.009 | [3] -0.002 | [4] -0.057 | [5] -0.014 | [6] -0.005 | [7] -0.063 | [8] 0.023 | [9] 0.009 | [10] -0.005

ZMYM4 (UniProt Q5VZL5)
inactive: [1] -0.079 | [2] -0.004 | [3] 0.055 | [4] -0.025 | [5] 0.051 | [6] 0.026 | [7] -0.089 | [8] -0.011 | [9] -0.012 | [10] -0.001

ZNF143 (UniProt P52747)
inactive: [1] -0.031 | [2] 0.011 | [3] -0.004 | [4] 0.027 | [5] 0.041 | [6] 0.009 | [7] -0.085 | [8] 0.016 | [9] 0.015 | [10] -0.01

ZMYM1 (UniProt Q5SVZ6)
inactive: [1] -0.04 | [2] 0.012 | [3] 0.02 | [4] 0.016 | [5] -0.022 | [6] -0.049 | [7] -0.008 | [8] 0.001 | [9] -0.007 | [10] -0.011

ZNF460 (UniProt Q14592)
inactive: [1] 0.005

ZNF512 (UniProt Q96ME7)
inactive: [1] 0.074 | [2] -0.026 | [3] 0.04 | [4] -0.094 | [5] 0.001 | [6] 0.028 | [7] -0.028 | [8] 0 | [9] -0.009 | [10] 0.002

ZMYM2 (UniProt Q9UBW7)
inactive: [1] -0.029 | [2] -0.059 | [3] -0.037 | [4] -0.106 | [5] -0.039 | [6] -0.008 | [7] -0.018 | [8] 0.004 | [9] 0.04 | [10] -0.068

ZNF609 (UniProt O15014)
inactive: [1] 0.005 | [2] -0.025 | [3] 0.01 | [4] -0.034 | [5] -0.001 | [6] 0.01 | [7] -0.045 | [8] -0.082 | [9] 0.013 | [10] -0.058

ZNF417 (UniProt Q8TAU3)
inactive: [1] 0.026

ZNF845 (UniProt Q96IR2)
inactive: [1] 0.087 | [2] -0.039 | [3] 0.093 | [4] 0 | [5] -0.061 | [6] -0.047 | [7] 0.072 | [8] 0.005 | [9] -0.012 | [10] -0.109

ZNF622 (UniProt Q969S3)
inactive: [1] 0.023 | [2] 0.007 | [3] 0 | [4] -0.006 | [5] -0.038 | [6] -0.052 | [7] -0.003 | [8] 0.003 | [9] -0.008 | [10] 0.008

ZNHIT6 (UniProt Q9NWK9)
inactive: [1] -0.01 | [2] -0.097 | [3] -0.032 | [4] 0.005 | [5] 0.001 | [6] 0.036 | [7] -0.02 | [8] 0.032 | [9] 0.018 | [10] -0.029

ZNF787 (UniProt Q6DD87)
inactive: [1] 0.029 | [2] 0.081 | [3] 0 | [4] -0.002 | [5] -0.086 | [6] -0.165 | [7] -0.022 | [8] -0.007 | [9] 0.042 | [10] -0.015

ZNF618 (UniProt Q5T7W0)
inactive: [1] -0.037 | [2] -0.043 | [3] 0.009 | [4] -0.011 | [5] -0.034 | [6] -0.092 | [7] 0.007 | [8] 0.039 | [9] 0.051 | [10] -0.02

ZNF330 (UniProt Q9Y3S2)
inactive: [1] 0.024 | [2] -0.026 | [3] -0.012 | [4] -0.036 | [5] -0.048 | [6] -0.015 | [7] -0.038 | [8] 0.07 | [9] -0.02 | [10] -0.056

ZWINT (UniProt O95229)
inactive: [1] 0.03 | [2] 0.007 | [3] -0.002 | [4] -0.039 | [5] 0.032 | [6] -0.027 | [7] -0.002 | [8] -0.013 | [9] -0.026 | [10] -0.044

Quoted from the entries so far (6 entries):
ZNF609 (UniProt O15014)
inactive: [1] 0.005 | [2] -0.025 | [3] 0.01 | [4] -0.034 | [5] -0.001 | [6] 0.01 | [7] -0.045 | [8] -0.082 | [9] 0.013 | [10] -0.058

ZNF417 (UniProt Q8TAU3)
inactive: [1] 0.026

ZNF845 (UniProt Q96IR2)
inactive: [1] 0.087 | [2] -0.039 | [3] 0.093 | [4] 0 | [5] -0.061 | [6] -0.047 | [7] 0.072 | [8] 0.005 | [9] -0.012 | [10] -0.109

ZNF622 (UniProt Q969S3)
inactive: [1] 0.023 | [2] 0.007 | [3] 0 | [4] -0.006 | [5] -0.038 | [6] -0.052 | [7] -0.003 | [8] 0.003 | [9] -0.008 | [10] 0.008

ZNHIT6 (UniProt Q9NWK9)
inactive: [1] -0.01 | [2] -0.097 | [3] -0.032 | [4] 0.005 | [5] 0.001 | [6] 0.036 | [7] -0.02 | [8] 0.032 | [9] 0.018 | [10] -0.029

ZNF787 (UniProt Q6DD87)
inactive: [1] 0.029 | [2] 0.081 | [3] 0 | [4] -0.002 | [5] -0.086 | [6] -0.165 | [7] -0.022 | [8] -0.007 | [9] 0.042 | [10] -0.015

Additional results follow.

ZNF428 (UniProt M0QXZ5)
inactive: [1] 0.055 | [2] 0.009 | [3] -0.048 | [4] -0.103 | [5] -0.062 | [6] -0.076 | [7] -0.068 | [8] 0.057 | [9] -0.064 | [10] -0.018

ZWILCH (UniProt Q9H900)
inactive: [1] 0.02 | [2] 0.016 | [3] -0.021 | [4] -0.043 | [5] -0.031 | [6] 0.038 | [7] -0.004 | [8] -0.008 | [9] 0.027 | [10] 0.003

ZNF598 isoform 3 (UniProt Q86UK7)
inactive: [1] 0.032 | [2] -0.007 | [3] -0.001 | [4] -0.017 | [5] 0.013 | [6] 0.019 | [7] 0.005 | [8] -0.001 | [9] -0.004 | [10] 0

ZPR1 (UniProt O75312)
inactive: [1] 0.001 | [2] -0.005 | [3] -0.019 | [4] -0.016 | [5] -0.017 | [6] -0.021 | [7] 0.021 | [8] -0.008 | [9] 0.011 | [10] -0.004

ZMYM3 (UniProt Q14202)
inactive: [1] 0.054 | [2] -0.006 | [3] 0.023 | [4] -0.01 | [5] -0.009 | [6] 0.022 | [7] -0.007 | [8] 0.02 | [9] 0.003 | [10] -0.032

ZNRD2 (UniProt G3V1B8)
inactive: [1] 0.021 | [2] -0.115 | [3] -0.014 | [4] -0.133 | [5] -0.094 | [6] -0.089 | [7] -0.071 | [8] 0.132 | [9] 0.013 | [10] -0.057

ZYG11B (UniProt Q9C0D3)
inactive: [1] 0 | [2] 0.01 | [3] 0.022 | [4] -0.033 | [5] -0.02 | [6] -0.012 | [7] -0.005 | [8] 0.137 | [9] 0.015 | [10] -0.018

ZNF24 (UniProt P17028)
inactive: [1] 0.011 | [2] 0.036 | [3] 0.006 | [4] 0.011 | [5] 0.035 | [6] 0.037 | [7] -0.005 | [8] 0.037 | [9] 0.012 | [10] 0.01

ZMPSTE24 (UniProt O75844)
inactive: [1] -0.023 | [2] -0.002 | [3] 0.009 | [4] -0.034 | [5] 0 | [6] 0.004 | [7] -0.002 | [8] 0.018 | [9] -0.017 | [10] -0.017

ZNF346 (UniProt Q9UL40)
inactive: [1] -0.041 | [2] 0.008 | [3] -0.019 | [4] -0.075 | [5] -0.012 | [6] -0.08 | [7] 0.111 | [8] -0.019 | [9] -0.004 | [10] 0.018

ZNRD2 (UniProt O60232)
inactive: [1] 0.048 | [2] -0.005 | [3] 0.017 | [4] 0.034 | [5] 0.003 | [6] 0.011 | [7] 0.047 | [8] 0.021 | [9] -0.018 | [10] 0.068
